# Laboratory results as given in US9365868B2, “Fermentation process for producing isopropanol using a recombinant microorganism” (LANZATECH NEW ZEALAND LIMITED, priority 2011, dated 2016).
# Assays:
# Assay in all cases: Addition of acetone to growing cultures (conversion to isopropanol)
# [1] = test system: Acetobacterium woodii DSM1030; type: cell-based; conditions: PETC (pH 8.2); acetone 10.81 g/l directly after addition
# [2] = test system: C. beijerinckii NRRL-B593; type: cell-based, Clostridium beijerinckii; conditions: RCM; acetone 9.96 g/l directly after addition
# [3] = test system: C. autoethanogenum DSM23693; type: cell-based, Clostridium autoethanogenum
# C. ljungdahlii DSM13528 = type: cell-based, Clostridium ljungdahlii; conditions: PETC (pH 5.9); acetone 10.23 g/l directly after addition
# [4] = test system: C. ragsdalei ATCC BAA-622; type: cell-based, Clostridium ragsdalei; conditions: PETC (pH 5.9); acetone 11.25 g/l directly after addition
# [5] = test system: C. acetobutylicum ATCC824; type: cell-based, Clostridium acetobutylicum; conditions: RCM; acetone 10.80 g/l directly after addition
# [6] = test system: Clostridium aceticum DSM1496; type: cell-based; conditions: PETC (pH 7.4); acetone 10.07 g/l directly after addition
# [7] = test system: C. carboxidivorans DSM15243; type: cell-based, Clostridium carboxidivorans; conditions: PETC (pH 5.9); acetone 10.43 g/l directly after addition
# [8] = PETC (pH 5.9), acetone 9.25 g/l added
compound,measurement,setting,value
CC(C)=O [acetone],Acetone [g/l] End of growth,[1],10.83 g/L
same,Isopropanol [g/l] End of growth,[1],0 g/L
same,Acetone [g/l] End of growth,[2],7.65 g/L
same,Isopropanol [g/l] End of growth,[2],2.54 g/L
same,Acetone [g/l] End of growth,[3]; [8],1.13 g/L
same,Isopropanol [g/l] End of growth,[3]; [8],8.03 g/L
same,Acetone [g/l] left at end of growth,[3]; acetone 1.66 g/l added,0.22 g/L
same,Isopropanol [g/l] left at end of growth,[3]; acetone 1.66 g/l added,1.48 g/L
same,Acetone [g/l] left at end of growth,[3]; acetone 26.13 g/l added,17.82 g/L
same,Isopropanol [g/l] left at end of growth,[3]; acetone 26.13 g/l added,8.39 g/L
same,Acetone [g/l] left at end of growth,[3]; acetone 50.01 g/l added,43.30 g/L
same,Isopropanol [g/l] left at end of growth,[3]; acetone 50.01 g/l added,6.95 g/L
same,Acetone [g/l] End of growth,C. ljungdahlii DSM13528,3.73 g/L
same,Isopropanol [g/l] End of growth,C. ljungdahlii DSM13528,6.54 g/L
same,Acetone [g/l] End of growth,[4],9.94 g/L
same,Isopropanol [g/l] End of growth,[4],1.34 g/L
same,Acetone [g/l] End of growth,[5],10.91 g/L
same,Isopropanol [g/l] End of growth,[5],0 g/L
same,Acetone [g/l] End of growth,[6],10.09 g/L
same,Isopropanol [g/l] End of growth,[6],0 g/L
same,Acetone [g/l] End of growth,[7],10.34 g/L
same,Isopropanol [g/l] End of growth,[7],0 g/L
